# Reference: PubChem BioAssay AID2551 (National Center for Advancing Translational Sciences (NCATS), 2010)
# Chains of the proteins cited; added tags and fusions are not shown. Lines headed by an entry give the natural chain unless they say otherwise; changes in a name come on top.
# UniProt P51450: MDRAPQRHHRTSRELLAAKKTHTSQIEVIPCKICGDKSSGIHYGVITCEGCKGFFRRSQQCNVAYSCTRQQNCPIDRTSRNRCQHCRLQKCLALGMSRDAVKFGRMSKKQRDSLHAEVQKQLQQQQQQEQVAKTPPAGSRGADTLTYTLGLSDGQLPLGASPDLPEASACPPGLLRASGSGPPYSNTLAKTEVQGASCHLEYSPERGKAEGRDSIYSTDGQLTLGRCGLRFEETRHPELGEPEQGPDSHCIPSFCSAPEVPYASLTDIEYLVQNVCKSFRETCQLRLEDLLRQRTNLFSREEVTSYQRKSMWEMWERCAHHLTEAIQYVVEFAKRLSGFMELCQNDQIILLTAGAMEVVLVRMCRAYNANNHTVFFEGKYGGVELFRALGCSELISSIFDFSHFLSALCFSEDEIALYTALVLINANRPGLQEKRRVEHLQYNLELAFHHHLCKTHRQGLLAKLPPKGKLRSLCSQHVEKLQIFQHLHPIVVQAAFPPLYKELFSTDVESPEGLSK
# About 17,000 (5.5%) of roughly 310,000 compounds were called active. The inconclusive results got no clear call from the source; some entries with a clear call stand among them for comparison. Calls come from the whole dose curve; as a rule, active = well fitted inhibition curve with a large enough effect; inconclusive = small, poorly fitted or top-dose-only effect, or effect the other way; inactive = no such curve, though single readings can be large or run the other way. Potencies beside an inconclusive call are fits to weak or partial responses and may not hold up.
# Target: Nuclear receptor ROR-gamma (Mus musculus) (UniProt P51450)
# Test: qHTS for inhibitors of ROR gamma transcriptional activity; note: nearly all actives have a fitted effect of over 60% in size
# Settings: Drosophila S2 Gal4-RORgamma UAS-luciferase reporter, 20 h; activity change, negative = inhibition: at 53.6 µM (top of the series)
# In short: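 Using a luciferase readout, inhibitors were identified by reduced reporter activity in Drosophila cells coexpressing a copper-inducible Gal4–ROR gamma fusion and UAS-driven Photinus luciferase, incubated 20 hr after 700 uM copper sulfate.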
# % is set by controls: 0 for no effect and ±100 for the full control effect; potency is the fitted concentration of half-maximal effect.
Structure (SMILES),Potency,"activity change, negative = inhibition"
O=C(NCCc1ccccc1F)c1ccc2c(c1)OCCO2,active: 0.631 µM,
Cc1ccc2occ(/C=N/NC(=O)c3ccc(Cl)cc3)c(=O)c2c1,inactive,
O=C1CC(N2CCN(S(=O)(=O)c3ccc(Cl)cc3)CC2)C(=O)N1CCc1ccccc1 (stereo not given),"inconclusive: 11.2 µM [activator, partial curve]",
COc1cccc(/C=N/NC(=O)c2cc3c(OC)cccc3[nH]2)c1OC,inactive,
O=C(Nc1cccnc1)c1cc(-c2cccc(Cl)c2)on1,inactive,
Cc1cc(C)c(-n2c(SCc3nc4ccccc4s3)n[nH]c2=O)c(C)c1,"inconclusive: 5.62 µM [inhibitor, single point]",
Cc1ccc(NC(=S)NC(=O)c2ccc(F)cc2)cc1S(=O)(=O)Nc1ccccc1Cl,active: 4.47 µM,
CC(C)C1CCC(C(=O)NC(Cc2ccccc2)C(=O)O)CC1 (stereo not given),inactive,
CN(C)Cc1nnnn1-c1cccc(-n2nnnc2CN(C)C)c1,inactive,
CC1=C(C(N)=O)C(c2cccs2)NC(=S)N1 (stereo not given),inactive,
O=[N+]([O-])c1cccc(-c2ccc(SCc3cccnc3)nn2)c1,"inconclusive: 2.82 µM [activator, full curve, poor fit]",
Cc1cccc(C)c1N1CCN(CCn2c(=S)[nH]c3ccccc3c2=O)CC1,active: 10 µM,
CC(c1ccccc1)n1cc(C(=O)NCC2COc3ccccc3O2)nn1 (stereo not given),"inconclusive: 7.94 µM [activator, partial curve, poor fit]",
Cc1ccc2oc3c(c(=O)c2c1)C(c1cccc(O)c1)N(c1ccccn1)C3=O (stereo not given),"inconclusive: 2 µM [activator, single point]",
COc1ccccc1-c1n[nH]c2c1[C@H](C)CC[C@H]2C(C)C,active: 3.16 µM,
Cc1cccc(C)c1NC(=S)N/N=C/c1ccc(OCCC(C)C)cc1,active: 1.58 µM,
COc1ccccc1CNC(=O)CN1CCC(NC(=O)c2ccccc2F)CC1,inactive,
Cn1nc(C(F)(F)F)c(-c2ccc(Br)cc2)c1NC(=O)Nc1ccc(F)cc1F,"inconclusive: 17.8 µM [activator, single point]",
Cc1cc(C)n(-c2nc(C)nc(NCc3ccccc3)n2)n1,active: 1.58 µM,
O=C(Nc1cccnc1)c1sc(Nc2ccccc2)nc1-c1ccccc1,"inconclusive: 14.1 µM [activator, partial curve]",
O=C1c2oc3ccccc3c(=O)c2C(c2cccc(F)c2)N1CCCO (stereo not given),,inactive: 0.204% [at 10 µM]
Cc1cccc(NC(=S)N/N=C/c2ccc(Cl)c([N+](=O)[O-])c2)c1,active: 1.58 µM,
CC(Nc1cccc2ccccc12)C(=O)N/N=C/c1ccc([N+](=O)[O-])cc1 (stereo not given),active: 12.6 µM,
Cc1ccc(CNC(=O)C2CCC(=O)N(CCc3cccc(F)c3)C2)cc1 (stereo not given),inactive,

# Among those listed so far, 13 contain a carbonyl joined to an NH by a bond outside any ring:
Structure (SMILES),Potency,"activity change, negative = inhibition"
O=C(NCCc1ccccc1F)c1ccc2c(c1)OCCO2,active: 0.631 µM,
Cc1ccc2occ(/C=N/NC(=O)c3ccc(Cl)cc3)c(=O)c2c1,inactive,
COc1cccc(/C=N/NC(=O)c2cc3c(OC)cccc3[nH]2)c1OC,inactive,
O=C(Nc1cccnc1)c1cc(-c2cccc(Cl)c2)on1,inactive,
Cc1ccc(NC(=S)NC(=O)c2ccc(F)cc2)cc1S(=O)(=O)Nc1ccccc1Cl,active: 4.47 µM,
CC(C)C1CCC(C(=O)NC(Cc2ccccc2)C(=O)O)CC1 (stereo not given),inactive,
CC1=C(C(N)=O)C(c2cccs2)NC(=S)N1 (stereo not given),inactive,
CC(c1ccccc1)n1cc(C(=O)NCC2COc3ccccc3O2)nn1 (stereo not given),"inconclusive: 7.94 µM [activator, partial curve, poor fit]",
COc1ccccc1CNC(=O)CN1CCC(NC(=O)c2ccccc2F)CC1,inactive,
Cn1nc(C(F)(F)F)c(-c2ccc(Br)cc2)c1NC(=O)Nc1ccc(F)cc1F,"inconclusive: 17.8 µM [activator, single point]",
O=C(Nc1cccnc1)c1sc(Nc2ccccc2)nc1-c1ccccc1,"inconclusive: 14.1 µM [activator, partial curve]",
CC(Nc1cccc2ccccc12)C(=O)N/N=C/c1ccc([N+](=O)[O-])cc1 (stereo not given),active: 12.6 µM,
Cc1ccc(CNC(=O)C2CCC(=O)N(CCc3cccc(F)c3)C2)cc1 (stereo not given),inactive,

# The list goes on.

Structure (SMILES),Potency,"activity change, negative = inhibition"
COc1ccc(-c2cn3cc(C(=O)NN)ccc3n2)cc1,"inconclusive: 10 µM [inhibitor, partial curve, poor fit]",
CCCc1ccc(C(=O)NC(=O)c2ccccc2O)cc1,active: 2.82 µM,
CCCNC(=O)C1CC(c2cccc(F)c2)=NO1 (stereo not given),inactive,
O=C(NC1CCSc2ccccc21)c1ccccc1F (stereo not given),"inconclusive: 2.82 µM [activator, single point]",
CN(C(=O)COC(=O)c1cc(NS(=O)(=O)c2cc([N+](=O)[O-])ccc2Cl)ccc1O)C1CCCCC1,"inconclusive: 28.2 µM [activator, single point]",
COCCCNCCC(CCC(C)C)c1ccc2c(c1)OCO2 (stereo not given),inactive,
CC(C)[C@H](NC(=O)c1ccc(Cl)c([N+](=O)[O-])c1)C(=O)NCc1ccc(F)cc1,"inconclusive: 31.6 µM [activator, single point]",
CCc1c(C)nc2ncnn2c1NCCc1ccc(Cl)cc1,"inconclusive: 31.6 µM [inhibitor, single point]",
CCC(C)(C)NC(=O)C(c1cccn1C)N(C(=O)Cn1nnc2ccccc21)c1ccc(OC)cc1OC (stereo not given),"inconclusive: 20 µM [activator, single point]",
Nn1c(SCC(=O)Nc2ccc3c(c2)OCO3)nnc1-c1ccccc1,"inconclusive: 35.5 µM [activator, single point]",
CCOC(=O)c1ccc(NC(=O)COc2ccccc2CNCCc2ccccc2)cc1,"inconclusive: 25.1 µM [inhibitor, single point]",
NC(=O)c1c(NC(=O)c2c(F)cccc2F)sc2c1CCN(Cc1ccccc1)C2,"inconclusive: 25.1 µM [activator, single point]",
COC(=O)c1ccc(NC(=S)NCC2CC2)cc1,active: 11.2 µM,
O=C(O)c1cn(C2CC2)c2cc(N3CCN(S(=O)(=O)c4ccc5c(c4)OCCO5)CC3)c(F)cc2c1=O,inactive,
Cc1cc(OC(=O)c2c(C)cc(O)cc2O)cc(O)c1C(=O)O,"inconclusive: 11.2 µM [inhibitor, single point]",
CN(C)CCCNC(=O)c1ccc(Cl)c(S(=O)(=O)N(C)c2ccccc2)c1,"inconclusive: 35.5 µM [inhibitor, single point]",
C=C(C)Cn1c(CN(C)Cc2ccccc2)nc2c1c(=O)n(C)c(=O)n2C,"inconclusive: 0.891 µM [activator, single point]",
C=CCSc1nc2ccccc2n1C(=O)/C=C/c1ccc(OC)c(OC)c1,active: 5.01 µM,
COc1cccc(/C=N/NC(N)=S)c1OCc1ccccc1Cl,active: 3.16 µM,
CC1(C)C2CC[C@@]1(C)C(=O)C2,"inconclusive: 0.251 µM [inhibitor, full curve, poor fit]",
O=C(CCC(=O)N1CCOc2ccccc21)Nc1ccc(F)cc1F,inactive,
O=C(c1cnn2c(C(F)(F)F)cc(-c3ccc(F)cc3)nc12)N1CCc2ccccc2C1,"inconclusive: 3.55 µM [activator, single point]",
CC(NC(=O)c1sc2cc([N+](=O)[O-])ccc2c1Cl)C(C)(C)C (stereo not given),"inconclusive: 35.5 µM [inhibitor, single point]",
O=C(CSc1ccccc1)Nc1ccc(-c2nc3ccccc3[nH]2)cc1,"inconclusive: 20 µM [inhibitor, single point]",

Structure (SMILES),Potency,"activity change, negative = inhibition"
Brc1ccc(/C=N/Nc2ccc3ccccc3n2)cc1,active: 7.94 µM,
CCCN(Cc1ccccc1)C(=S)Nc1cccc(C)c1C,"inconclusive: 3.16 µM [inhibitor, full curve]",
O=C(NCCNc1ccc([N+](=O)[O-])cc1)c1cccc2c(Br)cccc12,"inconclusive: 22.4 µM [activator, single point]",
COc1ccc(C(=O)N=S2CCN(C(=O)c3ccc(Cl)cc3)CC2)cc1,"inconclusive: 2 µM [activator, partial curve, poor fit]",
CCCN=C(C)c1c(-c2ccccc2)[nH]n(-c2nc3ccccc3s2)c1=O,active: 2.51 µM,
COCCN(C(=S)Nc1ccc(C)cc1C)C(C)c1ccco1 (stereo not given),active: 14.1 µM,
CCCS/C(N)=N/N=C/c1ccccc1O,active: 0.631 µM,
COc1ccc(NS(=O)(=O)c2cc(OCC(N)=O)c(C)cc2Cl)cc1,"inconclusive: 11.2 µM [activator, partial curve]",
CC[C@H](C)[C@H](NC(=O)[C@H](CC(C)C)NC(=O)[C@H](CO)NC(=O)[C@H](CCC(=O)O)NC(=O)[C@H](CC(C)C)NC(=O)[C@H](Cc1ccc(O)cc1)NC(=O)[C@H](CCCCN)NC(=O)[C@H](CCCCN)NC(=O)[C@H](C)NC(=O)[C@H](CO)NC(=O)[C@H](CC(C)C)NC(=O)[C@H](CCC(N)=O)NC(=O)CNC(=O)[C@H](CC(C)C)NC(=O)[C@H](CC(C)C)NC(=O)[C@H](CCCNC(=N)N)NC(=O)[C@H](CO)NC(=O)[C@H](Cc1ccccc1)NC(=O)[C@H](CC(=O)O)NC(=O)[C@H](CO)NC(=O)[C@@H](NC(=O)[C@H](Cc1ccccc1)NC(=O)[C@@H](NC(=O)CNC(=O)[C@H](CC(=O)O)NC(=O)[C@H](C)NC(=O)[C@@H](N)Cc1cnc[nH]1)C(C)C)[C@@H](C)O)C(N)=O,inactive,
COc1ccc(-c2nn(C)c(=O)c3ccccc23)cc1CNS(C)(=O)=O,"inconclusive: 14.1 µM [inhibitor, single point]",
C/C(=C\C(=O)c1ccccc1)NNc1nc2ccccc2s1,active: 7.94 µM,
O=C(Nc1ccc(Cl)cn1)C1CCCN(c2ncnc3c2nc2n3CCCCC2)C1 (stereo not given),inactive,
CCC(c1nnnn1Cc1ccco1)N(CCc1ccccc1)Cc1cc2cc(C)ccc2[nH]c1=O (stereo not given),inactive,
Fc1ccc(NC(=S)Nc2ccccc2N2CCOCC2)cc1Cl,"inconclusive: 22.4 µM [inhibitor, single point]",
CCCOC(=O)c1ccc(Oc2cn[nH]c2-c2ccc(OCC)cc2O)cc1,active: 10 µM,
Nc1ccc(O)c(C(=O)O)c1,inactive,
Cc1nc(S/C(=C\c2ccc(OCc3ccccc3Cl)cc2)C(=O)O)n[nH]1,active: 1 µM,
O=C(Nc1ccc(Cl)cc1)/C(=C/c1ccc([N+](=O)[O-])cc1)c1nc2ccccc2s1,active: 5.01 µM,
Cc1ccc(S(=O)(=O)C2(S(=O)(=O)c3ccc(C)cc3)CC2)cc1,inactive,
CCc1ccc(NCc2nc(-c3ccccc3)no2)cc1,"inconclusive: 6.31 µM [activator, partial curve]",
CCCCCC(=O)Nc1cccc(C2=NOC3(C2)C[C@H](C(N)=O)N(C(=O)COc2ccc(Cl)cc2)C3)c1 (stereo not given in full),"inconclusive: 20 µM [activator, partial curve, poor fit]",
Cc1ccc(N(CC(O)CON=C2c3ccccc3-c3ccccc32)S(C)(=O)=O)cc1 (stereo not given),inactive,

# 3 compounds out of the list, ordered by SMILES length, rising:
Structure (SMILES),Potency,"activity change, negative = inhibition"
Fc1ccc(NC(=S)Nc2ccccc2N2CCOCC2)cc1Cl,"inconclusive: 22.4 µM [inhibitor, single point]",
Cc1nc(S/C(=C\c2ccc(OCc3ccccc3Cl)cc2)C(=O)O)n[nH]1,active: 1 µM,
CC[C@H](C)[C@H](NC(=O)[C@H](CC(C)C)NC(=O)[C@H](CO)NC(=O)[C@H](CCC(=O)O)NC(=O)[C@H](CC(C)C)NC(=O)[C@H](Cc1ccc(O)cc1)NC(=O)[C@H](CCCCN)NC(=O)[C@H](CCCCN)NC(=O)[C@H](C)NC(=O)[C@H](CO)NC(=O)[C@H](CC(C)C)NC(=O)[C@H](CCC(N)=O)NC(=O)CNC(=O)[C@H](CC(C)C)NC(=O)[C@H](CC(C)C)NC(=O)[C@H](CCCNC(=N)N)NC(=O)[C@H](CO)NC(=O)[C@H](Cc1ccccc1)NC(=O)[C@H](CC(=O)O)NC(=O)[C@H](CO)NC(=O)[C@@H](NC(=O)[C@H](Cc1ccccc1)NC(=O)[C@@H](NC(=O)CNC(=O)[C@H](CC(=O)O)NC(=O)[C@H](C)NC(=O)[C@@H](N)Cc1cnc[nH]1)C(C)C)[C@@H](C)O)C(N)=O,inactive,
